Measured values: patent US20250283871A1, “COMPOSITIONS AND METHODS FOR MODULATING THE INTERACTION BETWEEN SS18-SSX FUSION ONCOPROTEIN AND NUCLEOSOMES” (Dana-Farber Cancer Institute, Inc., priority 2020, published 2025)

Tested on: BAF complex subunits and histone proteins
Assay: Mass spectrometry proteomics of purified HA-SS18 WT and HA-SS18-SSX1 complexes (Tables 5A-5E)
Design: species or system human
[1] = HA-SS18SSX1_CHR_peptides: protein identified in the HA-SS18-SSX1 purification from solubilized chromatin (CHR), HEK-293T
[2] = HA-SS18WT_CHR_peptides: HA-SS18 WT purification from nuclease-treated solubilized chromatin (CHR), HEK-293T, label = protein identified
[3] = HA-SS18SSX1 purification, NE (soluble nuclear extract) fraction, HEK-293T, peptides per identified protein
[4] = HA-SS18WT_NE_peptides: HA-SS18 WT complexes purified from nuclear extract (NE), HEK-293T, label = protein identified (Gene Symbol)
[5] = HA-SS18SSX1_NE_peptides: protein co-purified with HA-SS18-SSX1 BAF complexes from soluble nuclear extract (NE), HEK-293T cells
[6] = HA-SS18WT_CHR_peptides: protein identified in HA-SS18 WT BAF complex purification from nuclease-treated solubilized chromatin (CHR), HEK-293T
[7] = HA-SS18WT_NE_peptides: proteins co-purified with HA-SS18 WT from nuclear extract (NE), HEK-293T

Molecule | Total (total peptides) [1] | Unique (unique peptides) [1] | Total (peptides) [2] | Unique (peptides) [2] | Total (total peptides) [3] | Unique (unique peptides) [3] | Total (peptides) [4] | Unique (peptides) [4] | Total (peptides) [5] | Unique (peptides) [5] | Total (total peptides) [6] | Unique (unique peptides) [6] | Total (peptides) [7] | Unique (peptides) [7]
RBM12B (protein, UniProt Q8IXT5 1-1001, looked up) RNA-binding protein 12B: MAVVIRLLGLPFIAGPVDIRHFFTGLTIPDGGVHIIGGEIGEAFIIFATDEDARRAISRSGGFIKDSSVELFLSSKAEMQKTIEMKRTDRVGRGRPGSGTSGVDSLSNFIESVKEEASNSGYGSSINQDAGFHTNGTGHGNLRPRKTRPLKAENPYLFLRGLPYLVNEDDVRVFFSGLCVDGVIFLKHHDGRNNGDAIVKFASCVDASGGLKCHRSFMGSRFIEVMQGSEQQWIEFGGNAVKEGDVLRRSEEHSPPRGINDRHFRKRSHSKSPRRTRSRSPLGFYVHLKNLSLSIDERDLRNFFRGTDLTDEQIRFLYKDENRTRYAFVMFKTLKDYNTALSLHKTVLQYRPVHIDPISRKQMLKFIARYEKKRSGSLERDRPGHVSQKYSQEGNSGQKLCIYIRNFPFDVTKVEVQKFFADFLLAEDDIYLLYDDKGVGLGEALVKFKSEEQAMKAERLNRRRFLGTEVLLRLISEAQIQEFGVNFSVMSSEKMQARSQSRERGDHSHLFDSKDPPIYSVGAFENFRHQLEDLRQLDNFKHPQRDFRQPDRHPPEDFRHSSEDFRFPPEDFRHSPEDFRRPREEDFRRPSEEDFRRPWEEDFRRPPEDDFRHPREEDWRRPLEEDWRRPLEEDFRRSPTEDFRQLPEEDFRQPPEEDLRWLPEEDFRRPPEEDWRRPPEEDFRRPLQGEWRRPPEDDFRRPPEEDFRHSPEEDFRQSPQEHFRRPPQEHFRRPPPEHFRRPPPEHFRRPPPEHFRRPPPEHFRRPPPEHFRRPPPEHFRRPPQEHFRRPPQEHFRRSREEDFRHPPDEDFRGPPDEDFRHPPDEDFRSPQEEDFRCPSDEDFRQLPEEDLREAPEEDPRLPDNFRPPGEDFRSPPDDFRSHRPFVNFGRPEGGKFDFGKHNMGSFPEGRFMPDPKINCGSGRVTPIKIMNLPFKANVNEILDFFHGYRIIPDSVSIQYNEQGLPTGEAIVAMINYNEAMAAIKDLNDRPVGPRKVKLTLL | 18 | 15 | 9 | 9 |  |  |  |  |  |  |  |  |  | 
MATR3 (protein, UniProt P43243 2-847, looked up) Matrin-3: SKSFQQSSLSRDSQGHGRDLSAAGIGLLAAATQSLSMPASLGRMNQGTARLASLMNLGMSSSLNQQGAHSALSSASTSSHNLQSIFNIGSRGPLPLSSQHRGDADQASNILASFGLSARDLDELSRYPEDKITPENLPQILLQLKRRRTEEGPTLSYGRDGRSATREPPYRVPRDDWEEKRHFRRDSFDDRGPSLNPVLDYDHGSRSQESGYYDRMDYEDDRLRDGERCRDDSFFGETSHNYHKFDSEYERMGRGPGPLQERSLFEKKRGAPPSSNIEDFHGLLPKGYPHLCSICDLPVHSNKEWSQHINGASHSRRCQLLLEIYPEWNPDNDTGHTMGDPFMLQQSTNPAPGILGPPPPSFHLGGPAVGPRGNLGAGNGNLQGPRHMQKGRVETSRVVHIMDFQRGKNLRYQLLQLVEPFGVISNHLILNKINEAFIEMATTEDAQAAVDYYTTTPALVFGKPVRVHLSQKYKRIKKPEGKPDQKFDQKQELGRVIHLSNLPHSGYSDSAVLKLAEPYGKIKNYILMRMKSQAFIEMETREDAMAMVDHCLKKALWFQGRCVKVDLSEKYKKLVLRIPNRGIDLLKKDKSRKRSYSPDGKESPSDKKSKTDGSQKTESSTEGKEQEEKSGEDGEKDTKDDQTEQEPNMLLESEDELLVDEEEAAALLESGSSVGDETDLANLGDVASDGKKEPSDKAVKKDGSASAAAKKKLKKVDKIEELDQENEAALENGIKNEENTEPGAESSENADDPNKDTSENADGQSDENKDDYTIPDEYRIGPYQPNVPVGIDYVIPKTGFYCKLCSLFYTNEEVAKNTHCSSLPHYQKLKKFLNKLAEERRQKKET | 20 | 13 | 16 | 10 | 13 | 9 | 12 | 11 |  |  |  |  |  | 
SRSF2 (protein, UniProt Q01130 2-221, looked up) Serine/arginine-rich splicing …: SYGRPPPDVEGMTSLKVDNLTYRTSPDTLRRVFEKYGRVGDVYIPRDRYTKESRGFAFVRFHDKRDAEDAMDAMDGAVLDGRELRVQMARYGRPPDSHHSRRGPPPRRYGGGGYGRRSRSPRRRRRSRSRSRSRSRSRSRSRYSRSKSRSRTRSRSRSTSKSRSARRSKSKSSSVSRSRSRSRSRSRSRSPPPVSKRESKSRSRSKSPPKSPEEEGAVSS | 20 | 3 |  |  |  |  |  |  | 2 | 1 | 2 | 1 | 2 | 1
MYBBP1A (protein, UniProt Q9BQG0 1-1328, looked up) Myb-binding protein 1A: MESRDPAQPMSPGEATQSGARPADRYGLLKHSREFLDFFWDIAKPEQETRLAATEKLLEYLRGRPKGSEMKYALKRLITGLGVGRETARPCYSLALAQLLQSFEDLPLCSILQQIQEKYDLHQVKKAMLRPALFANLFGVLALFQSGRLVKDQEALMKSVKLLQALAQYQNHLQEQPRKALVDILSEVSKATLQEILPEVLKADLNIILSSPEQLELFLLAQQKVPSKLKKLVGSVNLFSDENVPRLVNVLKMAASSVKKDRKLPAIALDLLRLALKEDKFPRFWKEVVEQGLLKMQFWPASYLCFRLLGAALPLLTKEQLHLVMQGDVIRHYGEHVCTAKLPKQFKFAPEMDDYVGTFLEGCQDDPERQLAVLVAFSSVTNQGLPVTPTFWRVVRFLSPPALQGYVAWLRAMFLQPDLDSLVDFSTNNQKKAQDSSLHMPERAVFRLRKWIIFRLVSIVDSLHLEMEEALTEQVARFCLFHSFFVTKKPTSQIPETKHPFSFPLENQAREAVSSAFFSLLQTLSTQFKQAPGQTQGGQPWTYHLVQFADLLLNHSHNVTTVTPFTAQQRQAWDRMLQTLKELEAHSAEARAAAFQHLLLLVGIHLLKSPAESCDLLGDIQTCIRKSLGEKPRRSRTKTIDPQEPPWVEVLVEILLALLAQPSHLMRQVARSVFGHICSHLTPRALQLILDVLNPETSEDENDRVVVTDDSDERRLKGAEDKSEEGEDNRSSESEEESEGEESEEEERDGDVDQGFREQLMTVLQAGKALGGEDSENEEELGDEAMMALDQSLASLFAEQKLRIQARRDEKNKLQKEKALRRDFQIRVLDLVEVLVTKQPENALVLELLEPLLSIIRRSLRSSSSKQEQDLLHKTARIFTHHLCRARRYCHDLGERAGALHAQVERLVQQAGRQPDSPTALYHFNASLYLLRVLKGNTAEGCVHETQEKQKAGTDPSHMPTGPQAASCLDLNLVTRVYSTALSSFLTKRNSPLTVPMFLSLFSRHPVLCQSLLPILVQHITGPVRPRHQACLLLQKTLSMREVRSCFEDPEWKQLMGQVLAKVTENLRVLGEAQTKAQHQQALSSLELLNVLFRTCKHEKLTLDLTVLLGVLQGQQQSLQQGAHSTGSSRLHDLYWQAMKTLGVQRPKLEKKDAKEIPSATQSPISKKRKKKGFLPETKKRKKRKSEDGTPAEDGTPAATGGSQPPSMGRKKRNRTKAKVPAQANGTPTTKSPAPGAPTRSPSTPAKSPKLQKKNQKPSQVNGAPGSPTEPAGQKQHQKALPKKGVLGKSPLSALARKKARLSLVIRSPSLLQSGAKKKAQVRKAGKP | 19 | 17 | 14 | 11 | 10 | 10 | 15 | 15 |  |  |  |  |  | 
HNRNPUL2 (protein, UniProt Q1KMD3 1-747, looked up) Heterogeneous nuclear …: MEVKRLKVTELRSELQRRGLDSRGLKVDLAQRLQEALDAEMLEDEAGGGGAGPGGACKAEPRPVAASGGGPGGDEEEDEEEEEEDEEALLEDEDEEPPPAQALGQAAQPPPEPPEAAAMEAAAEPDASEKPAEATAGSGGVNGGEEQGLGKREEDEPEERSGDETPGSEVPGDKAAEEQGDDQDSEKSKPAGSDGERRGVKRQRDEKDEHGRAYYEFREEAYHSRSKSPLPPEEEAKDEEEDQTLVNLDTYTSDLHFQVSKDRYGGQPLFSEKFPTLWSGARSTYGVTKGKVCFEAKVTQNLPMKEGCTEVSLLRVGWSVDFSRPQLGEDEFSYGFDGRGLKAENGQFEEFGQTFGENDVIGCFANFETEEVELSFSKNGEDLGVAFWISKDSLADRALLPHVLCKNCVVELNFGQKEEPFFPPPEEFVFIHAVPVEERVRTAVPPKTIEECEVILMVGLPGSGKTQWALKYAKENPEKRYNVLGAETVLNQMRMKGLEEPEMDPKSRDLLVQQASQCLSKLVQIASRTKRNFILDQCNVYNSGQRRKLLLFKTFSRKVVVVVPNEEDWKKRLELRKEVEGDDVPESIMLEMKANFSLPEKCDYMDEVTYGELEKEEAQPIVTKYKEEARKLLPPSEKRTNRRNNRNKRNRQNRSRGQGYVGGQRRGYDNRAYGQQYWGQPGNRGGYRNFYDRYRGDYDRFYGRDYEYNRYRDYYRQYNRDWQSYYYHHPQDRDRYYRNYYGYQGYR | 20 | 12 | 8 | 7 |  |  |  |  |  |  |  |  |  | 
NOP2 (protein, UniProt P46087 1-812, looked up) 28S rRNA …: MGRKLDPTKEKRGPGRKARKQKGAETELVRFLPAVSDENSKRLSSRARKRAAKRRLGSVEAPKTNKSPEAKPLPGKLPKGISAGAVQTAGKKGPQSLFNAPRGKKRPAPGSDEEEEEEDSEEDGMVNHGDLWGSEDDADTVDDYGADSNSEDEEEGEALLPIERAARKQKAREAAAGIQWSEEETEDEEEEKEVTPESGPPKVEEADGGLQINVDEEPFVLPPAGEMEQDAQAPDLQRVHKRIQDIVGILRDFGAQREEGRSRSEYLNRLKKDLAIYYSYGDFLLGKLMDLFPLSELVEFLEANEVPRPVTLRTNTLKTRRRDLAQALINRGVNLDPLGKWSKTGLVVYDSSVPIGATPEYLAGHYMLQGASSMLPVMALAPQEHERILDMCCAPGGKTSYMAQLMKNTGVILANDANAERLKSVVGNLHRLGVTNTIISHYDGRQFPKVVGGFDRVLLDAPCSGTGVISKDPAVKTNKDEKDILRCAHLQKELLLSAIDSVNATSKTGGYLVYCTCSITVEENEWVVDYALKKRNVRLVPTGLDFGQEGFTRFRERRFHPSLRSTRRFYPHTHNMDGFFIAKFKKFSNSIPQSQTGNSETATPTNVDLPQVIPKSENSSQPAKKAKGAAKTKQQLQKQQHPKKASFQKLNGISKGADSELSTVPSVTKTQASSSFQDSSQPAGKAEGIREPKVTGKLKQRSPKLQSSKKVAFLRQNAPPKGTDTQTPAVLSPSKTQATLKPKDHHQPLGRAKGVEKQQLPEQPFEKAAFQKQNDTPKGPQPPTVSPIRSSRPPPAKRKKSQSRGNSQLLLS | 19 | 15 | 12 | 10 |  |  |  |  | 2 | 2 |  |  |  | 
